# PubChem BioAssay AID504793 – Drosophila RNAi Screening Center, 2011
# Test: 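Whole-genome screen for parts of the DNA damage checkpoint at G2/M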 (primary screen)
# Cell system: Drosophila S2R+ cells
# Reagents: long dsRNA against Drosophila genes, about 0.25 µg dsRNA per well
# Time to read-out: 4 days of dsRNA, then 4 hours of drug before read-out
# Challenge: doxorubicin 0.5 µM for 4 hours to cause double-strand breaks, in cells also given a low, harmless dose of dsRNA against nbs to sensitise the assay
# Read-out: 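Mitotic index as the number of phospho-histone H3-positive cells in each well following doxorubicin, given as raw counts without normalisation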
# Scale: mitotic cells: higher = more cells in mitosis, weaker G2 arrest
# Call rule: 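Genes are called active only when high mitotic counts were reproduced with independent dsRNAs and mitosis was checked for delay without damage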
# Calls: active = confirmed in follow-up tests; inactive = not confirmed
# The deposit covers about 23,000 reagents; shown is an unselected part of those with a known target gene and a result. Of all reagents, 62 (0.27%) were called active. 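Calls come from follow-up tests whose scores are not deposited, so confirmed genes may have low counts here; counts are not normalised per plate.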 Raw values vary from plate to plate and are shown uncorrected. Names joined by + are all predicted targets of the reagent.
Gene,dsRNA,"mitotic cells, replicate 1","mitotic cells, replicate 2",activity call
CG14695,DRSC14918,7,,inactive
CG8160,DRSC07086,12,,inactive
CG8160,DRSC21434,4,,inactive
CG8160,DRSC24130,8,,inactive
qua,DRSC03598,6,,inactive
Cep89,DRSC07110,5,,inactive
Cep89,DRSC29382,7,,inactive
Cubn,DRSC18256,12,,inactive
Cubn,DRSC29380,4,,inactive
fws,DRSC02969,8,,inactive
fws,DRSC29678,7,,inactive
ssh,DRSC16730,6,,inactive
ssh,DRSC28782,2,,inactive
Acbp3,DRSC11022,,,inactive
Acbp3,DRSC25356,4,,inactive
Irbp18,DRSC10612,1,,inactive
CG5033,DRSC07410,9,,inactive
CG5033,DRSC27783,1,,inactive
CG8778,DRSC07264,6,,inactive
ea,DRSC16939,7,,inactive
ea,DRSC25595,7,,inactive
Nmdar2,DRSC18183,13,,inactive
Nmdar2,DRSC18511,11,,inactive
Nmdar2,DRSC18569,8,,inactive
TfIIS,DRSC03455,3,,inactive
TfIIS,DRSC24533,12,,inactive
CG10749,DRSC09798,1,,inactive
CG10749,DRSC27656,8,,inactive
alpha-Man-Ib,DRSC14418,4,,inactive
alpha-Man-Ib,DRSC26131,5,,inactive
sle + CG12592,DRSC21387,8,,inactive
sle + CG12592,DRSC27126,7,,inactive
CG3335,DRSC10358,6,,inactive
CG3335,DRSC29982,6,,inactive
bmm,DRSC10502,11,,inactive
Ama,DRSC12489,6,,inactive
CG14384,DRSC14842,7,,inactive
yellow-e,DRSC12966,5,,inactive
yellow-e,DRSC16563,8,,inactive
Or65b,DRSC08809,5,,inactive
CG10822,DRSC06005,1,,inactive
CG31344,DRSC16069,3,,inactive
CG31344,DRSC29593,6,,inactive
CG15814,DRSC19730,5,,inactive
CG3222,DRSC10355,3,,inactive
Jig,DRSC14974,11,,inactive
CG15615,DRSC06568,5,,inactive
CG15615,DRSC29555,4,,inactive
Ssl,DRSC04657,5,,inactive
Ssl,DRSC26276,6,,inactive
Apl,DRSC10350,7,,inactive
CG4716,DRSC06884,14,,inactive
CG4716,DRSC26611,7,,inactive
CG8564,DRSC10997,6,,inactive
amos,DRSC03484,5,,inactive
amos,DRSC24784,8,,inactive
CG1582,DRSC19732,5,,inactive
mxt,DRSC25001,6,,inactive
CG43740,DRSC23267,1,,inactive
COX4,DRSC02091,8,,inactive
COX4,DRSC23915,7,,inactive
Gdi,DRSC03330,6,,inactive
Gdi,DRSC28978,9,,inactive
Fancd2,DRSC15208,14,,inactive
Fancd2,DRSC22763,28,,inactive
Wdr82,DRSC02595,4,7,inactive
Wdr82,DRSC21723,8,,inactive
Fili,DRSC04132,12,,inactive
Fili,DRSC04445,7,,inactive
nyo,DRSC15029,10,,inactive
nyo,DRSC15030,15,,inactive
CG9372,DRSC11068,6,,inactive
CG13197,DRSC06322,8,,inactive
Pbp95,DRSC15448,4,,inactive
Pbp95,DRSC27283,4,,inactive

12 entries from above, set out differently:
CG8160 [DRSC07086]
- mitotic cells, replicate 1: 12
- activity call: inactive

CG8160 [DRSC21434]
- mitotic cells, replicate 1: 4
- activity call: inactive

CG8160 [DRSC24130]
- mitotic cells, replicate 1: 8
- activity call: inactive

qua [DRSC03598]
- mitotic cells, replicate 1: 6
- activity call: inactive

Cep89 [DRSC07110]
- mitotic cells, replicate 1: 5
- activity call: inactive

Cep89 [DRSC29382]
- mitotic cells, replicate 1: 7
- activity call: inactive

Cubn [DRSC18256]
- mitotic cells, replicate 1: 12
- activity call: inactive

Cubn [DRSC29380]
- mitotic cells, replicate 1: 4
- activity call: inactive

fws [DRSC02969]
- mitotic cells, replicate 1: 8
- activity call: inactive

fws [DRSC29678]
- mitotic cells, replicate 1: 7
- activity call: inactive

ssh [DRSC16730]
- mitotic cells, replicate 1: 6
- activity call: inactive

ssh [DRSC28782]
- mitotic cells, replicate 1: 2
- activity call: inactive
